# Hit rate of the full screen: of about 320,000 compounds, about 22,000 (6.9%) were called active. Inconclusive means that the source gave no clear call. Such entries were picked first, then a sample of the others. The call rests on the fitted dose curve; in most records, active means well fitted inhibition curve with a large enough effect; inconclusive means small, poorly fitted or top-dose-only effect, or another doubt; inactive means no such curve, though single readings can be large or run the other way. Where the call is inconclusive, the potency comes from a doubtful curve fit.
# Test: Primary qHTS for delayed death inhibitors of the malarial parasite plastid, 96 hour incubation
# Conditions: P. falciparum luciferase reporter growth; series mostly up to 28.7 µM
# Description: The goal of this screen is to discover new antimalarial compounds that act by inhibiting the development of the apicoplast in the malarial parasite Plasmodium falciparum. The biochemical processes that make this organelle essential for erythrocytic stage parasites are not well understood. However, antibiotics such as azithromycin and tetracycline, which target the apicoplast translational machinery, have a potent antimalarial effect.
# We have developed a cell-based assay that measures parasite growth based on the expression of an integrated copy of a firefly luciferase reporter. To detect small molecules that cause this "delayed death" phenotype, erythrocytes infected with the luciferase-expressing parasites were incubated with compounds for either one or two generations, corresponding to 48 and 96 hours, respectively. Compounds that inhibit parasite growth in the second generation, but not the first, should be enriched in antimalarials that target the apicoplast. Growth inhibition is detected by a decrease in luciferase activity.
# Assay Provider: David Fidock and Eric Ekland, Columbia University
# Keywords: NIH Roadmap, MLPCN, MLI, MLSMR, qHTS, NCGC, qHTS, malaria, luciferase, viability
# Four microliters of infected erythrocytes (2% hematocrit, 0.05% parasitemia final concentration) in culture medium were dispensed and the plates incubated for 96 hours at 37 C in 5% CO2. Two microliters of luciferase detection reagent was added and luminescence was detected by a ViewLux (PerkinElmer) reader.
# Potency means the concentration at half of the fitted maximal effect.
row,Compound,Potency
1,CCOC(=O)Cn1c(=NC(=O)c2cc(-c3cccs3)nc3ccccc23)sc2cc(S(N)(=O)=O)ccc21,"inconclusive: 10.4 µM [inhibitor, partial curve]"
2,Nc1c(C(=O)Nc2ccc3c(c2)OCCO3)nnn1Cc1ccccc1,inactive
3,COc1ccccc1NC(=O)c1sc(NC(=O)c2ccco2)c(C#N)c1C,inactive
4,COc1ccc(N(Cc2ccccc2)S(=O)(=O)c2cccc(C(=O)Nc3ccccn3)c2)cc1,"inconclusive: 10.4 µM [inhibitor, single point]"
5,CN(C)c1ccc(-c2nnc(-c3cccs3)o2)cc1,"inconclusive: 7.38 µM [inhibitor, partial curve, poor fit]"
6,CCN(c1ccccc1)S(=O)(=O)c1cc(C(=O)Nc2cccc(Cl)c2)ccc1F,"inconclusive: 18.5 µM [inhibitor, single point]"
7,O=C(NC(=S)Nc1ccc(S(=O)(=O)N2CCCC2)cc1)c1cccs1,"inconclusive: 18.5 µM [inhibitor, single point]"
8,CCc1ccc2[nH]c(=O)c(C(c3nnnn3CC3CCCO3)N3CCCc4ccccc43)cc2c1 (centres undefined),"inconclusive: 0.0928 µM [inhibitor, partial curve, poor fit]"
9,Cc1cc(=O)[nH]c(N/N=C/C(C)c2ccccc2)n1 (centres undefined),inactive
10,COc1ccc(OC)c(N2CC(O)(c3ccccc3)[N+]3=C2SCCC3)c1 (centres undefined),"inconclusive: 16.5 µM [inhibitor, single point]"
11,O=C(c1ccc(-c2ccccc2)cc1)N1CCN(c2nc3ccccc3o2)CC1,"inconclusive: 11.7 µM [inhibitor, partial curve, poor fit]"
12,Cc1cc(SCC(=O)OC/C(O)=C(\C#N)c2nc3ccccc3[nH]2)c(C)cc1Br,"inconclusive: 0.928 µM [inhibitor, full curve, poor fit]"
13,O=C(NCc1nnc(SCC(=O)N2CCCc3ccccc32)o1)c1c(F)cccc1Cl,inactive
14,COc1ccc(N2CCN(C(=O)C(=O)c3cn(CC(=O)N4CCOCC4)c4ccccc34)CC2)cc1,inactive
15,CCCN1C(=O)c2cc(C(=O)O)ccc2C1O (centres undefined),inactive
16,COC(=O)C1CN(C(=O)C(C)Oc2cccc(C)c2C)c2ccccc2O1 (centres undefined),inactive
17,CN(C)c1ccc(C2C3C(=O)NC(=O)C3ON2c2ccc(Cl)cc2)cc1 (centres undefined),inactive
18,O=C(Nc1nc2ccccc2s1)c1ccccc1[N+](=O)[O-],"inconclusive: 11.7 µM [inhibitor, partial curve, poor fit]"
19,CC[C@@]1(c2ccccc2OC)C(=O)N(C(=O)OC)N1C(=O)OC,"inconclusive: 0.165 µM [inhibitor, full curve, poor fit]"

# From no. 14 up to 15, as listed above:
row,Compound,Potency
14,COc1ccc(N2CCN(C(=O)C(=O)c3cn(CC(=O)N4CCOCC4)c4ccccc34)CC2)cc1,inactive
15,CCCN1C(=O)c2cc(C(=O)O)ccc2C1O (centres undefined),inactive

# Reference: PubChem BioAssay AID504834 (National Center for Advancing Translational Sciences (NCATS), 2011)
